± gives the standard deviation of the averaged measurements. This is a selection; strong and weak results do not stand in their true shares.
Compound: Nc1ncnc2c1ncn2[C@@H]1O[C@H](COP(=O)(O)OP(=O)(O)OP(=O)(O)O)[C@@H](O)[C@H]1O [adenosine triphosphate]
Experiment: NP40-soluble protein abundance relative to vehicle (solubility fold change) (ratio); higher = more soluble protein in presence of ATP
Outline: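 Values are fold changes against the detergent-processed vehicle, based on vsn-normalised intensities. Jurkat crude lysate was treated at eight concentrations from 0.1 to 10 mM (10 min at room temperature, then 3 min at 37 °C), solubilised with 0.8% NP40 and benzonase, ultracentrifuged and analysed by TMT-labelled LC-MS/MS over three independent experiments.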

The chains behind the UniProt entries cited, without tags or fusion partners. Where a name states a change or a piece, a line headed by the entry shows the natural chain unless it says otherwise.
UniProt Q96PN7: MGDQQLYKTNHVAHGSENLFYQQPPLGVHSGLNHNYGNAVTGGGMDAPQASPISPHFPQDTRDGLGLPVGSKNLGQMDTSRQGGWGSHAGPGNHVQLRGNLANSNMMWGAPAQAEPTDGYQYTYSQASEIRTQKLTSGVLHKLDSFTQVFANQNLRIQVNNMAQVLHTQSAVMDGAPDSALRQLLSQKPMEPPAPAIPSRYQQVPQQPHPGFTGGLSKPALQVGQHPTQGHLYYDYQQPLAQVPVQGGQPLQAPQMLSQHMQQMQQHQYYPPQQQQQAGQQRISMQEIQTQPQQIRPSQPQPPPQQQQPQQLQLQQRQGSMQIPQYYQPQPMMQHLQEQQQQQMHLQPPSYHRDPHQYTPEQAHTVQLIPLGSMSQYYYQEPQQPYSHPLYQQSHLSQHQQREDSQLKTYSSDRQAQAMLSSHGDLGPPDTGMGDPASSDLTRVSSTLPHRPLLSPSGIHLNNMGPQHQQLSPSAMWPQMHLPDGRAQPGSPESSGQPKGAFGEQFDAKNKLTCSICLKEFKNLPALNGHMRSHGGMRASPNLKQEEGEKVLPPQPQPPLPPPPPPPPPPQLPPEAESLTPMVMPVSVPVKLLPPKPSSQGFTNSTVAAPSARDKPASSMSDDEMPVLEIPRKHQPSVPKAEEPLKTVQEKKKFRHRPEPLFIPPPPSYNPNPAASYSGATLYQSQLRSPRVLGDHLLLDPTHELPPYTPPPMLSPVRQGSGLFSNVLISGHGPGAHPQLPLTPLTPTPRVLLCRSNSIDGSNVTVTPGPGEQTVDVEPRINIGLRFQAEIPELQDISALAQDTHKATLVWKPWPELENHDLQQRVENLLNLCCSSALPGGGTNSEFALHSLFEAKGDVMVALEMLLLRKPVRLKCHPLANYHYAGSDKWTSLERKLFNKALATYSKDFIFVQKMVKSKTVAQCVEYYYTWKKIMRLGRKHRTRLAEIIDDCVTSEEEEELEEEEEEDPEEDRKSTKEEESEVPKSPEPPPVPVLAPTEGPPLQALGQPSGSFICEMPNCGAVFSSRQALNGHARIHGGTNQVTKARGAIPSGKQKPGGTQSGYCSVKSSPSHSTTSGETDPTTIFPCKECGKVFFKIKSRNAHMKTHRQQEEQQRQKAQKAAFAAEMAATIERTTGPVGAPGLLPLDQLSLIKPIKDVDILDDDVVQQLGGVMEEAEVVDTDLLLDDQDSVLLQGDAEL
UniProt Q04323: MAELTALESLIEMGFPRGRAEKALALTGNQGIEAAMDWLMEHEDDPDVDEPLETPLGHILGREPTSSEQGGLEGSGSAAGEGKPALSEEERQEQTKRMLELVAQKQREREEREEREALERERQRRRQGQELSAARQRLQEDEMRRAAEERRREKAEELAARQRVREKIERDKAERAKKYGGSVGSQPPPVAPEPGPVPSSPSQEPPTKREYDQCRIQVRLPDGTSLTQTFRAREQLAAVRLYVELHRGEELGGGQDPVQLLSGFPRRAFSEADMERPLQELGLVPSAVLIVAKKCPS
UniProt Q08J23, whole entry: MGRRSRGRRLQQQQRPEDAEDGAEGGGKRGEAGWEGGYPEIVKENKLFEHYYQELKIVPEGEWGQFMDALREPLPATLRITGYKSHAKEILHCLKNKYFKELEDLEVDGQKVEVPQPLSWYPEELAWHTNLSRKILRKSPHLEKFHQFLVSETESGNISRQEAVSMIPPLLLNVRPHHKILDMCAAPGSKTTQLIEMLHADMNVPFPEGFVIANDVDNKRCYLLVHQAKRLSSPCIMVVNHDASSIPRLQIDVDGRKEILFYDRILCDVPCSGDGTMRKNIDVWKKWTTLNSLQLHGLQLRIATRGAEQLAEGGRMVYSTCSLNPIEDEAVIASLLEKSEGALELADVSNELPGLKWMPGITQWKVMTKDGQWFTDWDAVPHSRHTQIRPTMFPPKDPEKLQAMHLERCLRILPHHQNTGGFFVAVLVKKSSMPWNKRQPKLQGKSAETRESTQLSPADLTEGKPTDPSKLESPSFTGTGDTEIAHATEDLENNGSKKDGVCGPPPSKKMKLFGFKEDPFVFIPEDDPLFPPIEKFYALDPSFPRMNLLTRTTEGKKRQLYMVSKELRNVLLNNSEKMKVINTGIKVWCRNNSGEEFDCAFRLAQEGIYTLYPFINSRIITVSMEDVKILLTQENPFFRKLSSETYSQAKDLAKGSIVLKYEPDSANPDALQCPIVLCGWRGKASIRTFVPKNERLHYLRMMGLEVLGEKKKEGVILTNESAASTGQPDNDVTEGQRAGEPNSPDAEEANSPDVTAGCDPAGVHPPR
UniProt Q13951, whole entry: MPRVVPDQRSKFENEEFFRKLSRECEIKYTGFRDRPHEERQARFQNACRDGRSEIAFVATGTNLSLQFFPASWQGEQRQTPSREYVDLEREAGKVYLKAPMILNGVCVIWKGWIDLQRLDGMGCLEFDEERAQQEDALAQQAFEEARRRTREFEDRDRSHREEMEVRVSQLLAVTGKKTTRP
UniProt Q13112, whole entry, looked up: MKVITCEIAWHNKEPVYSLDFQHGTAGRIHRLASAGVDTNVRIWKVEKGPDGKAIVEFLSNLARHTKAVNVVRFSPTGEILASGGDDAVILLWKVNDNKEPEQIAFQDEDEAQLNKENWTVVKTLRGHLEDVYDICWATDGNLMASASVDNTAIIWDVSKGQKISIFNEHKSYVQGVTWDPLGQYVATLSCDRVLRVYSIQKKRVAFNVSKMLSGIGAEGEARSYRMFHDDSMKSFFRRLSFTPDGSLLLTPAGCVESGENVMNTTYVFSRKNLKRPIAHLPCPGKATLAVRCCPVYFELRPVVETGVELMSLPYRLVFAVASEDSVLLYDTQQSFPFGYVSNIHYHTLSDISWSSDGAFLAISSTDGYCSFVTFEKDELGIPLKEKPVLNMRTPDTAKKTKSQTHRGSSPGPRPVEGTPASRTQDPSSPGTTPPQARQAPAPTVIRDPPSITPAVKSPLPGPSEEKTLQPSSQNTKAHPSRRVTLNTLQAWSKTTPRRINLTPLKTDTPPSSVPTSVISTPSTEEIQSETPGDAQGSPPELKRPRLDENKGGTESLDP
UniProt Q03405, whole entry: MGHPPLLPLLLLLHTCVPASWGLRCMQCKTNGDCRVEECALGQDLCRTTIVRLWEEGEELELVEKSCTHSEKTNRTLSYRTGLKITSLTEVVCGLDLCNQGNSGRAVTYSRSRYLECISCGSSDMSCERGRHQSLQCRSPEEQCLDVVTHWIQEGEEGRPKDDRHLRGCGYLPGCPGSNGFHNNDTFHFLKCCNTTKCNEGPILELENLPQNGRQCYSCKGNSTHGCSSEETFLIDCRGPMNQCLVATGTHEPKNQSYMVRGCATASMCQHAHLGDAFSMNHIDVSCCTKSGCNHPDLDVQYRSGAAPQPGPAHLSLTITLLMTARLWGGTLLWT

Target	NP40-soluble protein abundance (concentration: 1mM)	NP40-soluble protein abundance (concentration: 2mM)	NP40-soluble protein abundance (concentration: 4mM)	NP40-soluble protein abundance (concentration: 6mM)	NP40-soluble protein abundance (concentration: 8mM)	NP40-soluble protein abundance (concentration: 10mM)
Q05GC8 and related entries (UniProt Q96PN7+Q05GC8)	1.02 ± 0.066	1.06 ± 0.038	1.12 ± 0.12	1.1603 ± 0.00023	1.09 ± 0.013	1.07 ± 0.07
UniProt Q04323 and related entries	0.922 ± 0.033	0.879 ± 0.028	0.914 ± 0.019	0.878 ± 0.041	0.949 ± 0.026	0.869 ± 0.088
NSUN2 (UniProt Q08J23)	1.06 ± 0.058	1.04 ± 0.033	1.09 ± 0.02	1.11 ± 0.051	1.18 ± 0.028	1.2 ± 0.051
UniProt Q14103-3|Q14103-4|D6RF44	0.992 ± 0.071	0.933 ± 0.062	0.894 ± 0.091	0.941 ± 0.072	0.932 ± 0.017	0.942 ± 0.021
UniProt Q13951-2|Q13951	0.97 ± 0.044	0.96 ± 0.042	0.977 ± 0.02	1.02 ± 0.052	0.984 ± 0.027	1 ± 0.028
PWP1 (UniProt Q13610)	0.962 ± 0.015	0.993 ± 0.034	0.987 ± 0.027	0.97 ± 0.069	0.999 ± 0.056	1.04 ± 0.03
CHAF1B (UniProt Q13112)	1.01 ± 0.035	1 ± 0.038	1.01 ± 0.015	0.994 ± 0.045	0.994 ± 0.02	0.998 ± 0.034
PLAUR (UniProt Q03405)	1.16 ± 0.14	1.16 ± 0.15	1.17 ± 0.2	1.21 ± 0.16	1.1 ± 0.12	1.11 ± 0.098

— the supplement of paper PMC6411743
